Measured values: patent publication US20090111753A1, “Nogo-A Polypeptide Fragments, Variant Nogo Receptor-1 Polypeptides, and Uses Thereof” (Yale University, priority 2004, published 2009)
Numbering of substitutions follows the chain as printed. Names may count otherwise. These are yes or no findings as the source states them, for the method shown. Some entries that bind do so weakly or less than the wild type.

Key:
Assay in all cases: AP-ligand binding, COS-7
[1] = target: T1, human NgR1 alanine mutant 117, 119, 120 (human) (UniProt Q9BZR6)
T1 sequence: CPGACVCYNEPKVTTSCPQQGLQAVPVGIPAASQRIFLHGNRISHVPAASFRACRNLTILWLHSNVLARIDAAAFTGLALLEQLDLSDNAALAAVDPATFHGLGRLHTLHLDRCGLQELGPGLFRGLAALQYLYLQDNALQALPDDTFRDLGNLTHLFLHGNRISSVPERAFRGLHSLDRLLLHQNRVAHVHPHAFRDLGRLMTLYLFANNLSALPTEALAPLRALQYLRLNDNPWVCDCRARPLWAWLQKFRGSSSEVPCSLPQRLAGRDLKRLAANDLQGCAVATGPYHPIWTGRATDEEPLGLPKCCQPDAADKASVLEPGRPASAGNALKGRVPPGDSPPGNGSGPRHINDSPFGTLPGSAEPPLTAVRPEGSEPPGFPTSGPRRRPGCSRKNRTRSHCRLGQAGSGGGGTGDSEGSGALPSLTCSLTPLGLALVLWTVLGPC

[2] = target: T2, human NgR1 alanine mutant 78, 81 (human) (UniProt Q9BZR6)
T2 sequence: T1 sequence with R52A, R55A, A91Q, A93R, A94S

[3] = target: T3, human NgR1 alanine mutant 202, 205, 227 (human) (UniProt Q9BZR6)
T3 sequence: T1 sequence with A91Q, A93R, A94S, H176A, D179A, R201A

[4] = target: T4, human NgR1 alanine mutant 92 (human) (UniProt Q9BZR6)
T4 sequence: T1 sequence with V66A, A91Q, A93R, A94S

[5] = target: T5, human NgR1 mutant D259N (human) (UniProt Q9BZR6)
T5 sequence: T1 sequence with A91Q, A93R, A94S, D233N

[6] = target: T6, human NgR1 alanine mutant 171, 172, 175, 176, 196, 199 (human) (UniProt Q9BZR6)
T6 sequence: T1 sequence with A91Q, A93R, A94S, D145A, D146A, R149A, D150A, R170A, R173A

Measured: binding

B1: AP-fused Amino-Nogo fragment B4C (a.a. 950-1018) (ligand)
chain: LLPPDVSALATQAEIESIVKPKVLVKEAEKKLPSDTEKEDRSPSAIFSAELSKTSVVDLLYWRDIKKTG
notes: also called AmNg B4C; AP-B4C; not shown: alkaline phosphatase (AP), vector pcAP6
binds: all assays above

B2: AP-Nogo-66 (ligand, UniProt Q9NQC3 1055-1120, looked up)
chain: RIYKGVIQAIQKSDEGHPFRAYLESEVAISEELVQKYSNSALGHVNCTIKELRRLFLVDDLVDSLK
notes: domain: Nogo-66; construct described elsewhere (Fournier 2001); also called AP-Ng66; Ng66; not shown: alkaline phosphatase (AP); construct described elsewhere
binds: all assays above
